Results are given in words; binding and its absence hold for the method and conditions named. In cells and extracts the contact can be indirect. Some binding calls cover weakened binding; strength is not graded here.
Experiments:
[1] = target: FLAG-tagged NogoA WT (human) (UniProt Q9NQC3); experiment: co-IP; anti-FLAG immunoprecipitation from lysate of HEK293T cells 36 h after transfection; immunoblot with anti-HSPA8 and anti-FLAG
[2] = target: FLAG-tagged NogoA G214A-N215A mutant (human) (UniProt Q9NQC3); experiment: as above

Protein sequences, listed by entry. Tags and fused reporters are not part of them. Lines headed by an entry give the natural chain unless they say otherwise; changes in a name come on top.
UniProt Q9NQC3: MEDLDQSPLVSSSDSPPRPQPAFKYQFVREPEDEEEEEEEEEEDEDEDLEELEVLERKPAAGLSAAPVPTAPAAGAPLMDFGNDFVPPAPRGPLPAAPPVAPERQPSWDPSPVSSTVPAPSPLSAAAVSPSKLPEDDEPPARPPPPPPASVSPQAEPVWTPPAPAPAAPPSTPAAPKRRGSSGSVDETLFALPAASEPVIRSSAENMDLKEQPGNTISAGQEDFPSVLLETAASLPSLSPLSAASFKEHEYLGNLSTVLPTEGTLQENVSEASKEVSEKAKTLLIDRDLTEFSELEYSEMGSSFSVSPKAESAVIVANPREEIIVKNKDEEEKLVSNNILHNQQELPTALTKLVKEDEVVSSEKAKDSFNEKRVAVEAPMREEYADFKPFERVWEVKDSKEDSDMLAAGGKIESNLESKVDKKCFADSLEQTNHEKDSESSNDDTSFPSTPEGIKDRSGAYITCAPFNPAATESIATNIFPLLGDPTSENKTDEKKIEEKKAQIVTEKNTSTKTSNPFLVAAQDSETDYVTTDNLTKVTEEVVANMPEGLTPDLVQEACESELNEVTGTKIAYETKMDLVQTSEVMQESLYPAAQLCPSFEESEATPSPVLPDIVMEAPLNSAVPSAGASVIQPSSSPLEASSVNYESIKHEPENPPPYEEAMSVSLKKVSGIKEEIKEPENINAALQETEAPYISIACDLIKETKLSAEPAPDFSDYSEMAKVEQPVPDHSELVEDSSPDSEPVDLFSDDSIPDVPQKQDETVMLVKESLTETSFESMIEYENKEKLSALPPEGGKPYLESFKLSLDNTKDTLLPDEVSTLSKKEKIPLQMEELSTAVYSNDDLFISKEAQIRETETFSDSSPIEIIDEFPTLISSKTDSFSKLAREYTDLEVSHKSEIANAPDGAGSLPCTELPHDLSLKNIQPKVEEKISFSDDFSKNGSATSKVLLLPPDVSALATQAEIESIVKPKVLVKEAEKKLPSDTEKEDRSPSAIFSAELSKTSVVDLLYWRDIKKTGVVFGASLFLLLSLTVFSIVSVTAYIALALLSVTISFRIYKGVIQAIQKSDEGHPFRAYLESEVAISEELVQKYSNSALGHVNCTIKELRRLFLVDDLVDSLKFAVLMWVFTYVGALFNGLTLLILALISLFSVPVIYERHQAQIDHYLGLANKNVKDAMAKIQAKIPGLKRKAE
UniProt P11142: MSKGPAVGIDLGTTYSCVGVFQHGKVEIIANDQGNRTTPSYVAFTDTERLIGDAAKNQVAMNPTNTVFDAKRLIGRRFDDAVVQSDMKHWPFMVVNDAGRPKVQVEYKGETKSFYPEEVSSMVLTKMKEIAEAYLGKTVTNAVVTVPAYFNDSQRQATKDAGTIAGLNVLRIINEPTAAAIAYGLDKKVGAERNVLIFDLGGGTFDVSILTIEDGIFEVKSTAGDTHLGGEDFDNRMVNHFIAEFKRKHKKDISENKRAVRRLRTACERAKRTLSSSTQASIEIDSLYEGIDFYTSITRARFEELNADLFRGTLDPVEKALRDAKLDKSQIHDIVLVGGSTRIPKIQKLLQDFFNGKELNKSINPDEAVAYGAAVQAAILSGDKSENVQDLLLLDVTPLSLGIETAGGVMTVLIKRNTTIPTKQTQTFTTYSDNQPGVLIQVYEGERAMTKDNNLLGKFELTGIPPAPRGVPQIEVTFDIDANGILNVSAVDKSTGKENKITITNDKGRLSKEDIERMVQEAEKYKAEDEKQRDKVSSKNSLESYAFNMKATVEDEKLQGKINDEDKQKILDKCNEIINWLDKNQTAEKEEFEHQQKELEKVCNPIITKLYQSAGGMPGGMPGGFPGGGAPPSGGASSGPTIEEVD

- binding [1]: binds
- binding [2]: no binding
Substance: HSPA8, endogenous in HEK293T cells (from UniProt P11142 1-646)
